Data: PubChem BioAssay AID1671190 (National Center for Advancing Translational Sciences (NCATS), 2021)
Screen size: about 580,000 compounds; about 6,100 (1.1%) were called active. Inconclusive means that the source gave no clear call. Such entries were picked first, then a sample of the others. The call rests on the fitted dose curve; in most records, active means well fitted inhibition curve with a large enough effect; inconclusive means small, poorly fitted or top-dose-only effect, or another doubt; inactive means no such curve, though single readings can be large or run the other way. Potencies beside an inconclusive call are fits to weak or partial responses and may not hold up.

By UniProt entry, the sequences of proteins in these tests, tags left out. Where a name states a change or a piece, a line headed by the entry shows the natural chain unless it says otherwise.
UniProt P18054: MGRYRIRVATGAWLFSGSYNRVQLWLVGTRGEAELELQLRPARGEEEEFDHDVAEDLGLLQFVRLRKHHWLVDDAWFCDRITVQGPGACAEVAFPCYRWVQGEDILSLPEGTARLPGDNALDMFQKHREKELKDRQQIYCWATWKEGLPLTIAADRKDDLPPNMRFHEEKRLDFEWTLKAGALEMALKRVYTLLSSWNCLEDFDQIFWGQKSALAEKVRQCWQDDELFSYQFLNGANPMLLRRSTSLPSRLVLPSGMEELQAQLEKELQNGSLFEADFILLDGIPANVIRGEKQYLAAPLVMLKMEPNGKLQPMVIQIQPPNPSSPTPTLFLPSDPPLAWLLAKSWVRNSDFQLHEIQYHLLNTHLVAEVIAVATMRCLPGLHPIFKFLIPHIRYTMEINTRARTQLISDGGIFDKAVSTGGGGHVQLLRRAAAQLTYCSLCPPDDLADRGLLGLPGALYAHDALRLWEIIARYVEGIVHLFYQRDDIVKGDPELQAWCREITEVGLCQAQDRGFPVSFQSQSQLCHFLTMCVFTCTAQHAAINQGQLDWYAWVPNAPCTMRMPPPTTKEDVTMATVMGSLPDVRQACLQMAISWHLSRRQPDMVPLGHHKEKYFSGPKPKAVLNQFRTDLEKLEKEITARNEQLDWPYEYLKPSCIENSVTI

Each molecule was assayed against Polyunsaturated fatty acid lipoxygenase ALOX12 (Homo sapiens) (UniProt P18054) (assay: Primary qHTS assay for inhibitors of human arachidonate 12S-lipoxygenase (ALOX12): Round 2). Details: purified 12hLO, xylenol orange hydroperoxide absorbance; activity change, negative = inhibition: at 108 µM (top of the series) unless noted.
Summary of the method: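 Purified human 12hLO (150 nM final) in 25 mM Hepes, 0.01% Triton X-100, pH 7.0 was preincubated 15 min at room temperature with compound. Then 40 uM arachidonic acid was added, 30 min. Hydroperoxide was read by Fe-XO absorbance ratio 573/405 nm.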
On the % scale 0 is the no-effect control and ±100 the full control effect; potency means the concentration at half of the fitted maximal effect.

Row | Structure (SMILES) | activity change, negative = inhibition | Potency
1 | COc1ccc(C2(CNC(=O)c3cc([N+](=O)[O-])cc([N+](=O)[O-])c3)CCCC2)cc1OC | inactive: -7.86% | –
2 | COc1ccc(CC(=O)N2CC(=O)Nc3ccc(F)cc3C2c2ccccc2)cc1 (configuration not stated) | – | inconclusive: 44.7 µM [inhibitor, partial curve, poor fit]
3 | CCCCN(C(=O)c1ccccc1Br)C(c1ccc(OC)cc1)c1nc2ccccc2[nH]1 (configuration not stated) | – | inconclusive: 44.7 µM [inhibitor, partial curve]
4 | N#Cc1c(SCC(=O)Nc2nccs2)sc2c(O)cc(=O)[nH]c12 | – | inconclusive: 11.2 µM [inhibitor, full curve, poor fit]
5 | COc1ccc(CNC(=O)/C=C/c2ccc(OCCCF)cc2)cc1 | inactive: -2.63% | –
6 | COc1cc(NC(=O)c2cc(=O)c3ccccc3o2)cc(OC)c1OC | – | inconclusive: 0.282 µM [inhibitor, full curve, poor fit]
7 | COc1ccc(Oc2nc3c(C)cccn3c(=O)c2/C=C(\C#N)C(N)=O)cc1 | inactive: 0% | –
8 | CCNC(=O)[C@@H]1CCCN1C1(C(=O)NC)CCC1 | – | inconclusive: 28.2 µM [inhibitor, partial curve, poor fit]
9 | CN1OC[C@@H]2CN(S(=O)(=O)c3cccc4ccccc34)[C@H](c3ccc(-c4ccccc4)cc3)C[C@@H]21 | inactive: -3.54% | –
10 | CC(C)Nc1nnc(SCc2cc(=O)n3ccsc3n2)s1 | inactive: 9.39% | –
11 | Cc1ccc(NC(=O)CN(C)C(=O)CNC(=O)c2ccc3c(c2)OCO3)cc1 | – | inconclusive: 35.5 µM [inhibitor, single point]
12 | O=[N+]([O-])c1ccc(N2CCCCCC2)c([N+](=O)[O-])c1 | – | inconclusive: 0.891 µM [inhibitor, full curve, poor fit]
13 | Cc1ccc(O)c(CCc2ccc(O)cc2)n1 | – | inconclusive: 44.7 µM [inhibitor, partial curve, poor fit]
14 | O=C(O)CC1C(=O)NCCN1CCCc1ccccc1 (configuration not stated) | inactive: -5.08% | –
15 | CCCOc1ccc(C2c3c(oc4ccccc4c3=O)C(=O)N2c2nnc(C(C)C)s2)cc1 (configuration not stated) | – | inconclusive: 44.7 µM [inhibitor, partial curve, poor fit]
16 | CCOc1ccccc1NC(=O)CCS(=O)(=O)c1ccc2c(c1)CCN2C(C)=O | inactive: -18.8% | –
17 | CCOC(=O)N1CCN(CC(O)COC2CC(C)CCC2C(C)C)CC1 (configuration not stated) | – | inconclusive: 50.1 µM [inhibitor, partial curve, poor fit]
18 | CC1(C(=O)Nc2ccc3c(c2)OCCO3)CSCC(=O)N1CCOc1ccccc1 (configuration not stated) | – | inconclusive: 126 µM [inhibitor, single point]
19 | COC(=O)c1ccccc1OS(=O)(=O)c1ccc2c(c1)CCCC2 | – | inconclusive: 70.8 µM [inhibitor, partial curve, poor fit]
20 | CCOCCCNCC(=O)Nc1ccc(S(=O)(=O)NC(C)CC)cc1 (configuration not stated) | – | inconclusive: 0.708 µM [inhibitor, full curve, poor fit]
21 | c1ccc2c(NC3C4CC5CC(C4)CC3C5)nc(N3CCCCC3)nc2c1 (configuration not stated) | – | inconclusive: 44.7 µM [inhibitor, full curve, poor fit]

Record cards, from the list above. Values in the order: activity change, negative = inhibition | Potency
Cc1ccc(NC(=O)CN(C)C(=O)CNC(=O)c2ccc3c(c2)OCO3)cc1 is listed with – | inconclusive: 35.5 µM [inhibitor, single point]
CN1OC[C@@H]2CN(S(=O)(=O)c3cccc4ccccc34)[C@H](c3ccc(-c4ccccc4)cc3)C[C@@H]21 is listed with inactive: -3.54% | –

The list continues:

Row | Structure (SMILES) | activity change, negative = inhibition | Potency
22 | CCc1ccc(NC(=O)CN2CCC(C(=O)c3ccc(OC)cc3)CC2)cc1 | – | inconclusive: 141 µM [inhibitor, partial curve, poor fit]
23 | COc1ccc(CC(=O)Nc2nc3c(s2)CC(C)CC3)cc1 (configuration not stated) | – | inconclusive: 50.1 µM [inhibitor, partial curve, poor fit]
24 | Cc1cc(C)n(Cc2cccc(C(=O)N[C@@H]3CCNC[C@H]3O)c2)n1 | – | inconclusive: 10 µM [inhibitor, full curve]
25 | CC(=O)c1cc(-c2ccccc2)n(CC(=O)Nc2cccc(C)c2C)c1C | inactive: -14.1% | –
26 | CC(c1nc2ccccc2c(=O)[nH]1)N1CCN(S(=O)(=O)c2ccc(F)c(Cl)c2)CC1 (configuration not stated) | inactive: -0.963% | –
27 | CCc1ccc(CN(C)C(=O)CC2C(=O)NCCN2Cc2ccoc2)cc1 (configuration not stated) | inactive: -0.4% | –
28 | CCCCc1ccc(Nc2nnc(SCC(=O)NCC)s2)cc1 | inactive: -7.5% | –
29 | C=CCSc1nc2ccccc2n1C(=O)/C=C/c1cc(OC)c(OC)c(OC)c1 | inactive: 3.68% | –
30 | Cc1ccc(NC2=NCC(=O)N2Cc2ccc3c(c2)OCO3)c(C)c1 | – | inconclusive: 44.7 µM [inhibitor, partial curve, poor fit]
31 | O=C(NCc1cccc(Cl)c1)c1c2c(nc3ccccc13)C(=O)N(C1CCCCC1)C2 | – | inconclusive: 112 µM [inhibitor, partial curve, poor fit]
32 | COc1ccc(S(=O)(=O)N2C[C@@H]3C[C@H](C2)c2ccc(-c4cccc(C(F)(F)F)c4)c(=O)n2C3)cc1 | inactive: 47% | –
33 | CCc1cc(C(=O)NCCc2ccccc2OC)sc1C | inactive: 22.8% | –
34 | CC(=O)Nc1cccc(NC(=O)c2cc3c(=O)n4cccc(C)c4nc3n2C)c1 | inactive: 0% | –
35 | Cc1cc(C(=O)N2CCCCCCNC(=O)[C@@H]3C[C@@H](c4nc(-c5cccnc5)no4)C[C@@H]32)nn1C | inactive: 28.9% | –
36 | O=C(c1cc2nc(C3CC3)cc(C(F)(F)F)n2n1)N1CCCC1 | – | inconclusive: 7.08 µM [inhibitor, full curve, poor fit]
37 | COc1ccc(CN(C(=O)CN2C(=O)NC3(CCC(C)CC3)C2=O)C(C)Cc2cccs2)cc1 (configuration not stated) | – | inconclusive: 112 µM [inhibitor, single point]
38 | Cc1cnc(CNc2ncncc2-c2ccccc2C#N)cn1 | – | inconclusive: 4.47 µM [inhibitor, full curve, poor fit]
39 | COc1cc(NC(=O)c2ccc(C)c(Cl)c2)ccc1NC(=O)c1cc2ccccc2o1 | – | inconclusive: 25.1 µM [inhibitor, single point]
40 | CCCn1cc(S(=O)(=O)c2ccc(C)cc2)c(=O)c2cc(F)c(N3CCCC3)cc21 | – | inconclusive: 112 µM [inhibitor, single point]
41 | Cc1ccc(CSc2nnc(-c3ccco3)n2N)cc1 | – | inconclusive: 112 µM [inhibitor, partial curve, poor fit]
42 | COC(=O)[C@@H](NC(=O)N1CCN(c2cccc(C(F)(F)F)c2)CC1)C(C)C | – | inconclusive: 7.94 µM [inhibitor, partial curve]
